Measured values taken from patent publication US20240277770A1, “SYSTEMS AND METHODS TO IDENTIFY MHC-ASSOCIATED ANTIGENS FOR THERAPEUTIC INTERVENTION” (GENENTECH, INC., priority 2021, published 2024).
These are yes or no findings as the source states them, for the method shown. Binding can be weak; no strength is given.

Target: HLA-C*07:01 (human)
Experiment: HLA-I IP (W6/32) and targeted MS of monoallelic HMy2.C1R cells expressing the polyantigen cassette
Settings: remark: other sources report otherwise

binding: binds
Binder: LTSTVQLIM […]
